Source: PubChem BioAssay AID448 (National Center for Advancing Translational Sciences (NCATS), 2006)
Hit rate of the full screen: of about 65,000 compounds, about 45 (0.07%) were called active. Inconclusive results, whose numbers are uncertain, are shown with a selection of clear calls. Calls follow the shape of the full dose curve. Potencies beside an inconclusive call are fits to weak or partial responses and may not hold up.

The compounds below were run on Schistosoma mansoni peroxiredoxin 2 (Prx2) (assay: Schistosoma Mansoni Peroxiredoxins (Prx2)). Details: S. mansoni Prx2 activity coupled to TGR/GSH (TGR is thioredoxin glutathione reductase), NADPH fluorescence loss, qHTS.
Procedure, shortened: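 Prx2 activity was followed as the loss of NADPH fluorescence (ex 365/em 450 nm), read every 30 sec for 8 min after H2O2 start. The enzyme mix (50 nM Prx2, 25 nM TGR, GSH, NADPH; pH 7.4 phosphate buffer) was incubated with compound for 15 min at room temperature first.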
Potency is read from the fitted curve at half-maximal effect.

Structure (SMILES) | Potency
CCOC(=O)c1ccc(NC2c3ccccc3C(=O)N2c2cccnc2)cc1 (stereo unspecified) | inactive: > 57 µM
CN(CCOc1ccc(C[C@H](Nc2ccccc2C(=O)c2ccccc2)C(=O)O)cc1)c1ccccn1 | inactive: > 57 µM
CCCCCCCCCCCCCCCCCC(=O)NC[C@@H](COP(=O)([O-])OCC[N+](C)(C)C)OCC | inconclusive: 50 µM [partial curve]
COc1ccc(C2CC(c3ccc(Cl)cc3Cl)n3nc(N)nc3N2)cc1 (stereo unspecified) | inactive: > 57 µM
CCC(C)NC(=O)N[C@@H](CCSC)C(=O)O (stereo partly specified) | inconclusive: 74.5 µM [single point]
COc1ccc(CN(C)CCc2ccccn2)cc1OC | inconclusive: 80.1 µM [single point]
COCCn1c(=O)c(-c2ccc(F)cc2)nc2cnc(N3CCOCC3)nc21 | inactive: > 57 µM
CC1CN(S(=O)(=O)c2cccc(C(=O)OCC(=O)Nc3ccc4c(c3)OCO4)c2)CC(C)O1 (stereo unspecified) | inconclusive: 59.5 µM [single point]
COc1ccccc1-c1nc(Nc2ccncc2)c2ccccc2n1 | inconclusive: 74.7 µM [partial curve]
CCCS(=O)(=O)N1CCCC(C(=O)N2CCC3(CC2)OCCO3)C1 (stereo unspecified) | inconclusive: 57.1 µM [single point]
COc1ccc(C2C(C(C)=O)=C(C)N=c3s/c(=C\c4cc(C)n(C)c4C)c(=O)n32)c(OC)c1 (stereo unspecified) | inconclusive: 173 µM [partial curve]
CC1CCCC(C)N1C(=O)CSc1nc2ncnc(N)c2[nH]1 (stereo unspecified) | inconclusive: 54.1 µM [single point]
O=C(C1CCN(S(=O)(=O)c2cccc3cccnc23)CC1)N1CCCC1 | inactive: > 57 µM
COc1ccccc1NC(=O)c1ccc(NC(=O)CSc2nnnn2C)cc1 | inconclusive: 66 µM [single point]
CN(C)c1ccc(-c2cncnc2NCCN2CCOCC2)cc1 | inconclusive: 59.6 µM [partial curve]
O=C(O)CN1C(=O)COc2cc(S(=O)(=O)N3CCCC3)ccc21 | inconclusive: 68.1 µM [single point]
CCOc1cccc(NC(=O)C2CC(=O)N(C)C(=Nc3cccc(F)c3)S2)c1 (stereo unspecified) | inconclusive: 75.1 µM [single point]
Cc1noc(NS(=O)(=O)c2ccc(NC(=O)CSc3nc4ccccc4s3)cc2)c1C | inconclusive: 163 µM [single point]
Cc1cc(NC(=O)c2noc3c2CCc2ccccc2-3)no1 | inactive: > 57 µM
O=C(Nc1ccc(S(=O)(=O)NCCc2ccccc2)cc1)c1ccc(Br)o1 | inconclusive: 56.8 µM [single point]
CC(=O)Nc1nc(CCC(C)C)cc2c1c(=O)oc1ccccc12 | inconclusive: 62.9 µM [single point]
CCn1c2ccccc2c2cc(NC(=O)CSc3nnc(-c4ccccc4OC)n3N)ccc21 | inconclusive: 65.1 µM [single point]
N#Cc1cccc(-c2nc3cnc(N4CCOCC4)nc3n(C3CC3)c2=O)c1 | inactive: > 57 µM

An excerpt from above in order of SMILES length, ascending.
Structure (SMILES) | Potency
CC1CCCC(C)N1C(=O)CSc1nc2ncnc(N)c2[nH]1 (stereo unspecified) | inconclusive: 54.1 µM [single point]
COc1ccccc1NC(=O)c1ccc(NC(=O)CSc2nnnn2C)cc1 | inconclusive: 66 µM [single point]
COCCn1c(=O)c(-c2ccc(F)cc2)nc2cnc(N3CCOCC3)nc21 | inactive: > 57 µM

Remaining list, next part.

Structure (SMILES) | Potency
N#CC(C#N)=Cc1ccc([N+](=O)[O-])c(O)c1 | inconclusive: 73.7 µM [single point]
O=C(c1ccco1)N1CCC2(CC1)CN(C(c1ccccc1)c1ccccc1)C2 | inactive: > 11.4 µM
C[C@H](C(=O)C=[N+]=[N-])N1C(=O)c2ccccc2C1=O | inconclusive: 3060 µM [partial curve]
CCC(=O)Nc1cccc(NC(=O)COc2ccc(OC)cc2)c1 | inconclusive: 0.232 µM [partial curve]
Cc1onc(-c2c(Cl)cccc2Cl)c1C(=O)N[C@H]1C(=O)N2[C@H]1SC(C)(C)[C@H]2C(=O)O | inactive: > 57 µM
C=C[C@@]1(C)CC(=O)[C@@]2(O)[C@@]3(C)[C@H](O)CCC(C)(C)[C@@H]3[C@H](O)[C@H](OC(C)=O)[C@]2(C)O1 | inactive: > 25.6 µM
CCn1c(Cc2ccccc2)nnc1SCC(=O)Nc1ccc(N2CCOCC2)c(Cl)c1 | inconclusive: 65.1 µM [single point]
COc1ccc(C(O)c2nccn2Cc2ccccc2)cc1 (stereo unspecified) | inconclusive: 114 µM [partial curve]
CC(=O)Nc1ccc2c(c1)/C(=C/c1ccc([N+](C)(C)C)cc1)c1ccccc1-2 | inconclusive: 56 µM [single point]
CCCc1cc(=O)n2[nH]c(C)c(-c3ccccc3)c2n1 | inconclusive: 222 µM [partial curve]
Nc1nc(Sc2ccc([N+](=O)[O-])c3nonc23)c2[nH]cnc2n1 | inconclusive: 31.8 µM [partial curve]
COCCn1c(C)c(C(=O)O)sc1=S | inconclusive: 93.5 µM [single point]
CCn1cc(C(=O)NCc2ccc(Cl)cc2)c(=O)c2cc(S(=O)(=O)N3CCOCC3)ccc21 | inactive: > 57 µM
O=C(c1cccnc1Nc1ccc2c(c1)CCC2)N1CCOCC1 | inconclusive: 56.3 µM [single point]
Cc1occc1-c1nnc(SCC(=O)N2CCc3ccccc32)o1 | inconclusive: 48.2 µM [partial curve]
COc1ccccc1CNC(=O)C1CCC(CNc2c(N3CCOCC3)c(=O)c2=O)CC1 (stereo unspecified) | inactive: > 57 µM
N#C/C(=C\c1ccc(O)c(O)c1)C(N)=S | inconclusive: 50.7 µM [partial curve]
CC1(C)CC(=O)C2=C(C1)Nc1ccccc1NC2c1cccnc1 (stereo unspecified) | inconclusive: 59.4 µM [single point]
COc1ccc(C(=O)c2no[n+]([O-])c2C(=O)c2ccc(OC)cc2)cc1 | inconclusive: 10.4 µM [partial curve]
CCN(CC)S(=O)(=O)N1CCC(C(=O)NC2CCCC2)CC1 | inactive: > 57 µM
Cc1cnc(CNc2ccnc(-c3ccccc3CN(C)C)n2)cn1 | inconclusive: 63.3 µM [single point]
CCOC(=O)c1c(C)[nH]c(C(=O)COC(=O)CSCC(=O)N(CC)CC)c1C | inconclusive: 58.7 µM [single point]
CN1CCN(C(=O)c2cc3nc(-c4ccc(F)cc4)cc(C(F)(F)F)n3n2)CC1 | inconclusive: 50.7 µM [partial curve]
